Measured values published in patent US4591573A (priority 1983, dated 1986).

System: antibody to L-hyoscyamine (antiserum)
Assay type: binding, New Zealand white rabbit

Compound: CN1[C@@H]2CC[C@H]1C[C@@H](OC(=O)[C@H](CO)c1ccccc1)C2 [L-hyoscyamine]
- L-hyoscyamine distinguishable from zero: About 25 pg/ml
- detection limit of L-hyoscyamine: 25 picograms per milliliter
- lowest measurable concentration of L-hyoscyamine: 25 pg per ml
- reliably detectable amount of L-hyoscyamine: 25 picograms
- useful range of the standard curve, upper end: up to 10 ng per assay tube
